# Experimental data from paper doi:10.1101/2022.03.04.482944.
# No constants are given. Whether binding was seen depends on the method and setting.
# T1: BMPR2-Halo (human), Q13873
# T1 chain: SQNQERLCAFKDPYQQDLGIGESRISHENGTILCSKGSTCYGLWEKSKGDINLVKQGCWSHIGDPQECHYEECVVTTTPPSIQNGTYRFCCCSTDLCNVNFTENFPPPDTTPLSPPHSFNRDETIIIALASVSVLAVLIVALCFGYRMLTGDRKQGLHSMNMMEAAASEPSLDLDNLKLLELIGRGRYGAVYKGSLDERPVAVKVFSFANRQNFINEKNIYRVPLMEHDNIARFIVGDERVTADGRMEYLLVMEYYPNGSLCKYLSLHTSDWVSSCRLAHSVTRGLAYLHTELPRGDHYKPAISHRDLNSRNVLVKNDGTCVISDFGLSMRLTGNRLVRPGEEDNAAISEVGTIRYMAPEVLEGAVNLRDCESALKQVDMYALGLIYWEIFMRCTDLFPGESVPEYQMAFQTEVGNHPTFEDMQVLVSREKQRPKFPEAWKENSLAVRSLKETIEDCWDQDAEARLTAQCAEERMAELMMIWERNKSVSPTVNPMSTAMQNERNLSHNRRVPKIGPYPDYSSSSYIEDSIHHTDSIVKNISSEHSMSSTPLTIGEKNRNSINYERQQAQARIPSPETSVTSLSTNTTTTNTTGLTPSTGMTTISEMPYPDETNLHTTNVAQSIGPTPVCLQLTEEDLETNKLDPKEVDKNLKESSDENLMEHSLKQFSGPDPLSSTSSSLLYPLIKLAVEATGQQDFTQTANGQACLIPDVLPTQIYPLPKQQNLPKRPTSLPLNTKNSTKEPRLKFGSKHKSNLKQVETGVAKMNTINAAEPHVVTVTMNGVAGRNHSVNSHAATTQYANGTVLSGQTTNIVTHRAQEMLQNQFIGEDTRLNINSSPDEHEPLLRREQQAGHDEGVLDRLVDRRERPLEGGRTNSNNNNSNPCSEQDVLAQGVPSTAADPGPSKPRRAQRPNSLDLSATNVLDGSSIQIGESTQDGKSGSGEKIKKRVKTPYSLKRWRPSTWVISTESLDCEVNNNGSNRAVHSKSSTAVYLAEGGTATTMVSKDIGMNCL
# T2: ALK2-Halo (human), Q04771
# T2 chain: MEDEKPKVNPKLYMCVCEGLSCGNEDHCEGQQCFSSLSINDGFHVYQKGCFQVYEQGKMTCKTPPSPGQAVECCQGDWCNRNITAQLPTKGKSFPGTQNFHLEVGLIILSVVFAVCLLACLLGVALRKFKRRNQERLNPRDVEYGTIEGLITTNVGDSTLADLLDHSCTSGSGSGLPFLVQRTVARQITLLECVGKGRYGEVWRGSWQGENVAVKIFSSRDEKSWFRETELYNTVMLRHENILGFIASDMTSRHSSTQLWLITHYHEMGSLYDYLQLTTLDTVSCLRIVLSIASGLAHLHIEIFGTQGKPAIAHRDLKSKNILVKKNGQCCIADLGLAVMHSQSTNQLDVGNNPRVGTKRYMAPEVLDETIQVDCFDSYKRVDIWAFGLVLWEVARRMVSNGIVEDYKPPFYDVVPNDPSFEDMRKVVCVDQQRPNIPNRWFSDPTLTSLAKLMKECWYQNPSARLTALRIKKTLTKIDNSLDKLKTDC
# T3: ALK5-Halo (human), P36897
# T3 chain: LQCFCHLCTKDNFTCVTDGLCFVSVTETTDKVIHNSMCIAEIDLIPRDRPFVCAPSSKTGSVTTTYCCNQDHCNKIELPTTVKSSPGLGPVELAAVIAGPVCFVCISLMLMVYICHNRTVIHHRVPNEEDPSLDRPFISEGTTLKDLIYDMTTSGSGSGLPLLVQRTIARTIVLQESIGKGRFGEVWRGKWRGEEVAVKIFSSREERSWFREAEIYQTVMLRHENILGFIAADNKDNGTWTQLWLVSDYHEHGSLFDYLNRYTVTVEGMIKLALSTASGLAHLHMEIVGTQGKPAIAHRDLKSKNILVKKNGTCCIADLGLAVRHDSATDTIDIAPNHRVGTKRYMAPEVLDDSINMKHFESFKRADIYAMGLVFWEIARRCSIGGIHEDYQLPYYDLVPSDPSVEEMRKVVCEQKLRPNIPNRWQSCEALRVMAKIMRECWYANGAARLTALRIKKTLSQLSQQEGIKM
# Assays:
# Experiment in all cases: Ligand Surface Binding Assay
# Conditions in all cases: remark: other sources report otherwise
# [1] = target: T1, BMPR2-Halo (human), Q13873
# [2] = target: T2, ALK2-Halo (human), Q04771
# [3] = target: T3, ALK5-Halo (human), P36897
binding [1],binding [2],binding [3],Binder
no binding (tested: 0.3 nM),–,–,"BMP9-SiR-d12, Q9UK05 320-429 (ligand, here or on the partner: SiR-d12 label (NHS-SiR-d12 ester, 5-fold molar excess)) SAGAGSHCQKTSLRVNFEDIGWDSWIIAPKEYEAYECKGGCFFPLADDVTPTKHAIVQTLVHLKFPTKVGKACCVPTKLSPISVLYKDDMGVPTLKYHYEGMSVAECGCR"
–,no binding (tested: 2 nM),no binding (tested: 2 nM),"Activin A-Cy5, P08476 311-426 (ligand, here or on the partner: Cy5 label (NHS-activated Cy5, protein:dye ratio 1:2 in the labelling reaction)) GLECDGKVNICCKKQFFVSFKDIGWNDWIIAPSGYHANYCEGECPSHIAGTSGSSLSFHSTVINHYRMRGHSPFANLKSCCVPTKLRPMSMLYYDDGQNIIKKDIQNMIVEECGCS"
